## Assay results

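A cell-based FRET test of anthrax lethal toxin entry, tracked through the 460 nm emission signal; the cell line is not named here. Each compound was tested as a concentration series from about 0.0005 to 40 µM. The number is the fitted AC50 of the 460 nm signal alone; lower values mean a more potent effect. A falling signal goes with compounds filed as inhibitors or cytotoxic, a rising one with activators or fluorescent compounds (inferred from the filed classes).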

Values are in µM. Common to all entries: measured here: 460 nm channel. This is a side read-out of the assay, for part of the compounds, not drawn at random. Potencies fitted to partial, single-point or poorly fitting curves are rough. The first word of each remark tells which way the curve ran; it can be opposite to the aim of the assay.

SMILES	AC50 (µM)	remark
O=C(C1CCN(c2nnc(N3CCCC3=O)s2)CC1)N1CCN(Cc2ccc3c(c2)OCO3)CC1	6.31	rising, partial curve, poor fit
CCOC(=O)CSc1nnc(CNC(=O)c2ccc(OC)cc2OC)n1-c1ccc(OC)cc1	12.59	rising, partial curve
CC(=O)Oc1ccc(C(c2ccc(OC(C)=O)cc2)c2ccccn2)cc1	0.7943	falling, full curve
O=C(Oc1ccccc1)N1CCC2(CC1)CCN(c1cccc(-c3ccccc3)c1)CC2	5.012	falling, single point
CCn1c2ccccc2c2nnc(SCCCn3c(=O)[nH]c4ccccc43)nc21	10	falling, partial curve
CCC1CCCCN1S(=O)(=O)c1ccc(S(=O)(=O)N(Cc2cccs2)C2CC2)cc1 (configuration not stated)	12.59	falling, partial curve
CCN(CC)C(=O)CN(C)S(=O)(=O)c1cccc2nsnc12	5.012	rising, single point
Cc1cccc(OCC(=O)Nc2ccc3c(c2)OCO3)c1C	12.59	falling, partial curve
c1cncc(-c2cc(-n3ccnc3)ncn2)c1	19.95	rising, single point
CC(C)Oc1ccccc1C1CC(=O)Nc2cc3c(cc21)OCCO3 (configuration not stated)	0.2512	falling, full curve
CSCCOC(=O)c1[nH]c2c(c1C)C(=O)CC(c1ccco1)C2 (configuration not stated)	1	falling, full curve
CC(C)NC[C@H](O)COc1ccc(CC(N)=O)cc1	31.62	falling, single point
O=S(=O)(c1ccccc1)N1CCC2(CC1)CN(Cc1nccs1)C2	6.31	rising, single point
Oc1cc2c(cc1O)[C@H]1c3ccc(O)c(O)c3OC[C@@]1(O)C2	12.59	falling, full curve, poor fit
Cc1ccc(C)c(N)c1	31.62	falling, single point
O=C(c1ccncc1)N1CCC2(CCN(Cc3ccccc3)CC2)CC1	1.585	falling, partial curve
CCC(C)(C)n1nnnc1C(c1ccc2ncccc2c1)N1CCN(c2nc3ccccc3s2)CC1 (configuration not stated)	15.85	rising, partial curve
Cc1nc(N2CCN(Cc3ccccc3)CC2)nc2c1C(=O)CC(C)C2 (configuration not stated)	10	rising, single point
Cc1nc(NC2CCCCC2)c2nc(-c3ccccc3)n(CCN3CCCCC3)c2n1	12.59	falling, partial curve
COc1cc(/C=C(\C#N)C(N)=O)cc(CSc2nc3ccccc3s2)c1O	1	falling, full curve
COC(=O)[C@@H]1[C@@H]2C[C@H]3c4[nH]c5ccccc5c4CCN3C[C@@H]2CC[C@@H]1O	31.62	rising, partial curve
N#Cc1nc(-c2cccs2)oc1N1CCN(c2ccccc2)CC1	0.003162	falling, full curve, poor fit
COc1ccccc1-n1nnnc1S(=O)(=O)Cc1ccc(Cl)cc1	0.01995	falling, full curve, poor fit
COc1cc(CN2CCC(C(=O)NC3CCCC3)CC2)cc(OC)c1O	3.981	falling, partial curve, poor fit
CCOc1ccc(C(C)=O)cc1N1C(=O)C2C3C=CC(O3)C2C1=O (configuration not stated)	31.62	falling, single point
O=c1c(-c2cccs2)nc2cnc(N3CCNCC3)nc2n1Cc1cccs1	0.7943	rising, full curve
COc1ccc2[nH]c(=O)c(CN(C)C(=O)COc3ccccc3)cc2c1	3.162	falling, single point
O=c1c(-c2ccc(F)cc2)nc2cncnc2n1-c1ccccc1	12.59	rising, single point
COc1ccc(OC)c(NC2c3ccccc3C(=O)N2Cc2ccc3c(c2)OCO3)c1 (configuration not stated)	10	falling, partial curve
Cc1ccc(C)c(NC(=O)c2ccccc2O)c1	15.85	falling, partial curve
COc1cccc(C(=O)NCc2nnc(SCC(=O)Nc3nccs3)n2-c2cccc(C)c2)c1	5.012	rising, single point
O=C(CSc1nnc(Cc2cccs2)n1Cc1ccco1)Nc1cc(Cl)cc(Cl)c1	0.03981	rising, full curve, poor fit
CN1CCN(c2ncc3nc(-c4cccs4)c(=O)n(C[C@H]4CCCO4)c3n2)CC1	12.59	rising, partial curve
O=C(O)c1cscc1Cc1cccs1	1	falling, single point
CCc1ccc(S(=O)(=O)NCCc2csc(-c3ccccc3)n2)s1	5.012	falling, partial curve
CCCN1C[C@H](C)N([C@H](c2ccc(C(=O)N(CC)CC)cc2)c2cccc(OC)c2)C[C@H]1C	0.001259	rising, full curve, poor fit
N/N=C1/CC(=O)NC(=O)N1	5.012	rising, single point

Data taken from PubChem BioAssay AID912, deposited by NCATS (2007).